PubChem BioAssay AID743454 | Peter MacCallum Cancer Centre, 2014
Aim: 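Knock-downs lowering viability or raising caspase 3/7 activity in vorinostat-treated resistant cells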 (primary screen). Cells: human HCT116-VR colon cancer cells, selected for vorinostat resistance. Reagents: siRNA pool against human genes, 40 nM siRNA pool. Timing: vorinostat for 24 h, read-out about 72 h after transfection. Conditions: vorinostat at 2.5 µM final. Read-out: 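Cell viability by CellTiter-Fluor and caspase 3/7 activity by luminescence, each scaled to mock wells per plate, duplicates averaged, then robust z-scored over all plates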. Reading the numbers: viability robust z-score: higher = more viable cells than screen typical; caspase robust z-score: higher = more caspase 3/7 activity than screen typical. Call rule: 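Hits are knock-downs in viability class RV1/RV2 or caspase class CA1/CA2, excluding ones that killed cells in the no-drug cell-count arm; hits then retested with single siRNAs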.
The whole screen tested about 18,000 reagents; below is an unselected part. In the full data, 450 (2.5%) are marked active. 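Single biological run; no consistent viability z cut-off exists, so the class columns, not z-scores, define the calls.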 No sequences are given here.

For MYB the deposit lists viability hit class no change; caspase hit class no change; viability robust z-score 0.59; caspase robust z-score -0.76; inactive.
Silencing of CASP2 came out at: viability hit class no change; caspase hit class no change; viability robust z-score 0.6; caspase robust z-score -0.88; inactive.
Knock-down of BPNT1 resulted in: viability hit class no change; caspase hit class no change; viability robust z-score 0.62; caspase robust z-score 0.68; inactive.
EIF2S3 gave viability hit class no change; caspase hit class no change; viability robust z-score -3.66; caspase robust z-score -0.36; inactive.
For SLC44A4 the deposit lists viability hit class no change; caspase hit class no change; viability robust z-score 0.38; caspase robust z-score 2.4; inactive.
FBXW2 showed viability hit class no change; caspase hit class no change; viability robust z-score 0.78; caspase robust z-score -0.26; inactive.
After knock-down of LRRFIP2 the results were viability hit class no change; caspase hit class no change; viability robust z-score 0.48; caspase robust z-score 0.66; inactive.
For SHPRH, the values are viability hit class no change; caspase hit class no change; viability robust z-score 0.6; caspase robust z-score -0.3; inactive.
Against KRTAP4-4, the entry reads viability hit class no change; caspase hit class no change; viability robust z-score 0.24; caspase robust z-score 0.67; inactive.
Silencing of CXCL2 resulted in: viability hit class no change; caspase hit class no change; viability robust z-score -0.3; caspase robust z-score -0.72; inactive.
Depletion of PLEKHG6 came out at: viability hit class no change; caspase hit class no change; viability robust z-score -0.46; caspase robust z-score 2.22; inactive.

Targets above whose gene name begins with C or c (2):
CASP2 | viability hit class = no change; caspase hit class = no change; viability robust z-score = 0.6; caspase robust z-score = -0.88; Outcome = inactive
CXCL2 | viability hit class = no change; caspase hit class = no change; viability robust z-score = -0.3; caspase robust z-score = -0.72; Outcome = inactive

More reagents follow:
Against TC2N, the values are viability hit class no change; caspase hit class no change; viability robust z-score -0.19; caspase robust z-score -0.22; inactive.
After knock-down of KIR2DS3, the screen gave viability hit class no change; caspase hit class no change; viability robust z-score -0.38; caspase robust z-score 2.29; inactive.
With knock-down of CASP9, the record shows viability hit class no change; caspase hit class no change; viability robust z-score -1.17; caspase robust z-score -0.35; inactive.
Knock-down of UGT1A4 gave: viability hit class no change; caspase hit class no change; viability robust z-score -0.18; caspase robust z-score 0.4; inactive.
ZNF354A gave viability hit class no change; caspase hit class no change; viability robust z-score -0.3; caspase robust z-score 0.2; inactive.
Against ARHGEF7, the entry reads viability hit class no change; caspase hit class no change; viability robust z-score -0.23; caspase robust z-score 0.07; inactive.
GSDMC gave viability hit class no change; caspase hit class no change; viability robust z-score -0.84; caspase robust z-score -0.8; inactive.
KRT79 scored viability hit class no change; caspase hit class no change; viability robust z-score -0.64; caspase robust z-score 2.26; inactive.
Against TPI1 the deposit lists viability hit class no change; caspase hit class no change; viability robust z-score 0.73; caspase robust z-score -0.18; inactive.
For DAPP1, the values are viability hit class no change; caspase hit class no change; viability robust z-score -0.25; caspase robust z-score 0.06; inactive.
